Data: paper PMC6668969
No constants are given. Whether binding was seen depends on the method and setting. Binding seen in cells or lysates may run through a third protein. Some results given as binding are weak or reduced against the parent protein; the word gives no strength.

Protein sequences, listed by entry. Tags and fused reporters are not part of them.
UniProt Q03135: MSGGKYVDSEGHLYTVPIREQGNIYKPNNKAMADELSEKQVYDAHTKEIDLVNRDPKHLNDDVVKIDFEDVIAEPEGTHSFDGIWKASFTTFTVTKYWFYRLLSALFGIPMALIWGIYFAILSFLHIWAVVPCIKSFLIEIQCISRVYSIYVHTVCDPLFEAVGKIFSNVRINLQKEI

B1: flotillin-1 (protein, UniProt O75955 1-427)
chain: MFFTCGPNEAMVVSGFCRSPPVMVAGGRVFVLPCIQQIQRISLNTLTLNVKSEKVYTRHGVPISVTGIAQVKIQGQNKEMLAAACQMFLGKTEAEIAHIALETLEGHQRAIMAHMTVEEIYKDRQKFSEQVFKVASSDLVNMGISVVSYTLKDIHDDQDYLHSLGKARTAQVQKDARIGEAEAKRDAGIREAKAKQEKVSAQYLSEIEMAKAQRDYELKKAAYDIEVNTRRAQADLAYQLQVAKTKQQIEEQRVQVQVVERAQQVAVQEQEIARREKELEARVRKPAEAERYKLERLAEAEKSQLIMQAEAEAASVRMRGEAEAFAIGARARAEAEQMAKKAEAFQLYQEAAQLDMLLEKLPQVAEEISGPLTSANKITLVSSGSGTMGAAKVTGEVLDILTRLPESVERLTGVSISQVNHKPLRTA
B2: flotillin-2 (protein, UniProt Q14254 1-428)
chain: MGNCHTVGPNEALVVSGGCCGSDYKQYVFGGWAWAWWCISDTQRISLEIMTLQPRCEDVETAEGVALTVTGVAQVKIMTEKELLAVACEQFLGKNVQDIKNVVLQTLEGHLRSILGTLTVEQIYQDRDQFAKLVREVAAPDVGRMGIEILSFTIKDVYDKVDYLSSLGKTQTAVVQRDADIGVAEAERDAGIREAECKKEMLDVKFMADTKIADSKRAFELQKSAFSEEVNIKTAEAQLAYELQGAREQQKIRQEEIEIEVVQRKKQIAVEAQEILRTDKELIATVRRPAEAEAHRIQQIAEGEKVKQVLLAQAEAEKIRKIGEAEAAVIEAMGKAEAERMKLKAEAYQKYGDAAKMALVLEALPQIAAKIAAPLTKVDEIVVLSGDNSKVTSEVNRLLAELPASVHALTGVDLSKIPLIKKATGVQV

These molecules were tested against epidermal growth factor receptor (human (endogenous in MCF-10A and MDA-MB-231)) (UniProt P00533) (assay: co-IP; normal- and high-density MCF-10A and MDA-MB-231 cells lysed in IP buffer (50 mmol/L Tris-HCl, 150 mmol/L NaCl, 1% Triton X-100, 60 mmol/L OGP, pH 8.0); supernatants immunoprecipitated with EGFR agarose-conjugated antibody overnight at 4°C; control normal rabbit IgG with Protein A/G PLUS-Agarose; western blot).
caveolin-1 (from UniProt Q03135 1-178) was tested, and the binding was “binds”. For B1, the binding was “binds”. In the case of B2, the binding is reported as “binds”.
